Test results reported in patent US20230357320A1, “HELICAL STAPLED PEPTIDES AND USES THEREOF” (FOG PHARMACEUTICALS, INC., priority 2020, published 2023).
Part of at least one peptide drawing is inferred or uncertain, most often the ends.

The chains behind the UniProt entries cited, without tags or fusion partners. Residues count along the entry.
UniProt Q92731, 261-500, species assumed: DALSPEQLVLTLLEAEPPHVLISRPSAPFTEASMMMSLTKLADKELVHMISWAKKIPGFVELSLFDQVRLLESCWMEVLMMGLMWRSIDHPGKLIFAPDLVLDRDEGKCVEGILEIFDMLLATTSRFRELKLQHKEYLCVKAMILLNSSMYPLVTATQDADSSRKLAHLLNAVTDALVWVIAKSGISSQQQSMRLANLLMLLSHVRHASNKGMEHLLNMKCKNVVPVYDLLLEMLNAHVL

Molecular target: T1, ERβ LBD (Homo sapiens, UniProt Q92731)
T1 construct: pET28a+ vector containing ERβ LBD (residues from 261 to 500) along with an N-terminal His6-yBBr-TEV tag; His6 (N); yBBr (N); TEV cleavage site (N); made in house; host or cells: E. coli BL21(DE3) pLysS
Test: Competition fluorescence polarization (FP) binding assay with FITC-ERL4 probe
Details: binding to ER LBD, estradiol 1 μM, FITC-ERL4 10 nM, ERβ LBD 200 nM, mean ± S.E.M, at least four replicates
Experimental: In addition to the PAMPA assay, to study the affinity of the first-generation ProLock™ stapled peptides to the Estrogen receptor p ligand-binding domain (ERβ LBD), a fluorescence polarization (FP) binding assay in competition format was used in the presence of the endogenous ERβ LBD ligand estradiol. Competition Fluorescence Polarization (FP) assay was performed on the peptides to determine their half-maximal effective concentration (EC50). To do this, FITC labeled ERL4 peptide (FITC-βAla-His-Pro-Leu-Leu-Nle-Arg-Leu-Leu-Leu-Ser-Pro-CONH2) was synthesized to be used as a fluorescence probe based on existing literature (Fuchs et al., Journal of the American Chemical Society 2013, 135 (11), 4364-4371). Direct FP was performed in black 384-well plates (Corning). The final volume of each assay well was 40 μL with constant concentration of FITC labeled ERL4 peptide (10 nM) and variable concentrations of ERβ LBD protein.
ERβ LBD expression and purification was performed as follows. BL21(DE3) pLysS E. coli cells were transformed with a pET28a+ vector containing ERβ LBD (residues from 261 to 500) along with an N-terminal His6-yBBr-TEV tag. An overnight culture in 10 mL of TB media containing 50 μg/mL kanamycin was prepared from a single bacterial colony. The overnight culture was subsequently added to 1 liter of autoclaved TB media containing 50 μg/mL kanamycin and shaken at 37° C. until an OD of 0.6-0.8 was reached. IPTG was added to the culture and left shaking for 6 hours. Bacterial culture was pelleted and resuspended in lysis buffer. Resuspended bacterial culture was incubated at 0° C. for 10 minutes before sonication at 65% amplitude with 10-sec cycles using a Branson Sonifier. The lysate was then cleared by centrifugation at 8000×g for 20 min. […]
Competition FP assays were also employed. […] FP measurements were performed at room temperature with excitation and emission wavelengths at 485 and 535 nm using a Clariostar microplate reader (BMG Labtech). […] The competition FP results were analyzed by Prism 7 (GraphPad). […]

Structure (SMILES)	EC50 (Table 2)	EC50 (Table 4)
CCCC[C@H](NC(=O)[C@H](CC(C)C)NC(=O)[C@]1(C)CCCC=CC[C@]2(CCCN2C(C)=O)C(=O)N[C@@H](C)C(=O)N[C@@H](CC(C)C)C(=O)N1)C(=O)N[C@@H](CC(C)C)C(=O)N[C@@H](C)C(=O)N[C@@H](Cc1ccc(O)cc1)C(=O)NC (single isomer, unassigned) [PLL4-6, Ac-PL3-Ala-Leu-S5-Leu-Nle-Leu-Ala-Tyr-NHMe]	> 10 µM	
CCCC[C@@H]1NC(=O)[C@H](CC(C)C)NC(=O)[C@]2(CC=CCCC[C@@](C)(C(=O)N[C@@H](CC(C)C)C(=O)N[C@@H](CC(C)C)C(=O)N[C@@H](Cc3c[nH]cn3)C(=O)N[C@@H](Cc3ccc(O)cc3)C(=O)NC)NC1=O)CCCN2C(C)=O (single isomer, unassigned) [PLL4-9, Ac-PL3-Leu-Nle-S5-Leu-Leu-His-Tyr-NHMe]	> 10 µM	
CNC(=O)[C@H](CC(N)=O)NC(=O)[C@H](CC(N)=O)NC(=O)[C@H](CC(C)C)NC(=O)[C@H](CC(C)C)NC(=O)[C@H](CC1CC1)NC(=O)[C@]1(C)CCCC=CC[C@]2(CCCN2C(C)=O)C(=O)N[C@@H](C)C(=O)N[C@@H](CC(C)C)C(=O)N1 (single isomer, unassigned) [PLL7-11, Ac-PL3-Ala-Leu-S5-Cpa-Leu-Leu-Asn-Asn-NHMe]		> 10 µM
